Experimental findings from article PMC3597719 are described below.

By UniProt entry, the sequences of proteins in these tests, tags left out. Where a name states a change or a piece, a line headed by the entry shows the natural chain unless it says otherwise. Chains listed by the source or under a name are the forms on record and can include a tag or linker.
C7orf10 chromosome 7 open reading frame 10 (Q9HAC7-3, form named): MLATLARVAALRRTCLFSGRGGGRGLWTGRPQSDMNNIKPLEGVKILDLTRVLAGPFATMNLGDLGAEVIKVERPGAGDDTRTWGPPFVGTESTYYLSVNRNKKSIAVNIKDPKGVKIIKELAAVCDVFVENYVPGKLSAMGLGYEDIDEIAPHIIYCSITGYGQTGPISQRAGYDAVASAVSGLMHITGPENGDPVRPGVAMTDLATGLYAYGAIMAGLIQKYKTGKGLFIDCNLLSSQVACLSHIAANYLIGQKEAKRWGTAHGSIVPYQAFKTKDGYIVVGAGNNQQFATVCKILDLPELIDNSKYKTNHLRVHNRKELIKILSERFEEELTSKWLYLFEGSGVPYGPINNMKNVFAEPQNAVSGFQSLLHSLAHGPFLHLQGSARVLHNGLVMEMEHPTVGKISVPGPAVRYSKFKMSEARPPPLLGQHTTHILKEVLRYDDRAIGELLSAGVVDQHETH

Results are given in words; binding and its absence hold for the method and conditions named. Some results given as binding are weak or reduced against the parent protein; the word gives no strength.

This experiment addresses DENV2 NS1 protein (New Guinea C strain) fused to the GAL4 DNA-binding domain (dengue virus 2, New Guinea C (NGC) strain) (UniProt P14340). In words: two-hybrid.

With “C7orf10 chromosome 7 open reading frame 10 (from UniProt Q9HAC7-3 1-464)”, the binding result is “binds”.
